PMC8842533
No constants are given. Whether binding was seen depends on the method and setting. In cells and extracts the contact can be indirect. These calls come from enrichment with a bait or labelling near it, and not all partners need be listed. For some of these results: Tags and fused reporters may be left off the sequences shown.

Sequences of proteins named here, by UniProt entry; tags and fusion partners are left off.
UniProt P06748: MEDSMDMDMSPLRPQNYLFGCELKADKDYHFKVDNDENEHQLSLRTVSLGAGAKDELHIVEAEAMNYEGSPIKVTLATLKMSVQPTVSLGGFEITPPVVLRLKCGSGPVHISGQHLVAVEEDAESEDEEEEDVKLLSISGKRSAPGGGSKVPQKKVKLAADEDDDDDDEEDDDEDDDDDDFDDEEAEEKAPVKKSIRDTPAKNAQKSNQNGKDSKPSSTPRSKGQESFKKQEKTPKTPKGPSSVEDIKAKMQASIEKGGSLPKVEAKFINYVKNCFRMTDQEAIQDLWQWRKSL
UniProt Q01844: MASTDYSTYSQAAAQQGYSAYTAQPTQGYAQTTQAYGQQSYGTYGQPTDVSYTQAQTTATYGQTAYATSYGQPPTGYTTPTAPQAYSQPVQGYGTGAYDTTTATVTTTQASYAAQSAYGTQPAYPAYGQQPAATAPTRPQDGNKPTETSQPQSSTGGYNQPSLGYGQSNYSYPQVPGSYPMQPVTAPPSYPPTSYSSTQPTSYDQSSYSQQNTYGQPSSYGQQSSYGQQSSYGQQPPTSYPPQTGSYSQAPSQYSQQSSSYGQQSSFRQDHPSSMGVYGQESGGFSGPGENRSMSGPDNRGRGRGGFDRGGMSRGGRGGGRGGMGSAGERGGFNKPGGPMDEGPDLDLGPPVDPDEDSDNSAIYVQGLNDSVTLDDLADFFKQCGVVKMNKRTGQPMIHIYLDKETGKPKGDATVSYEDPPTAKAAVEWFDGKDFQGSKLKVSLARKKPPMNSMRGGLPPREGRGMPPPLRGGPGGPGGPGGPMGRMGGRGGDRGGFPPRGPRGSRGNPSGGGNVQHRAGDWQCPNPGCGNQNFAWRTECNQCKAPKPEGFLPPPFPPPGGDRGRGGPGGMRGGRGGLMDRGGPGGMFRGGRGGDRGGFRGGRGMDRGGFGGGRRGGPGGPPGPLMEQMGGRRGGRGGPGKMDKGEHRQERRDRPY

Columns and labels:
Assay in all cases: proximity labelling; BioID: myc-BioID-DPRx100 expressed in HEK293T cells, 50 uM biotin for 24 h, lysis in 8 M urea, 50 mM Tris-HCl pH 7.5, streptavidin Sepharose pull-down of biotinylated proteins, DIA LC-MS/MS; specific interactors: log2 fold change > 1 and adjusted p < 0.05 against both myc-BioID and EGFP controls; three biological replicates
[1] = target: T1, myc-BioID-(GGGS)x3-poly-PR x100 fusion protein (human)
T1 sequence: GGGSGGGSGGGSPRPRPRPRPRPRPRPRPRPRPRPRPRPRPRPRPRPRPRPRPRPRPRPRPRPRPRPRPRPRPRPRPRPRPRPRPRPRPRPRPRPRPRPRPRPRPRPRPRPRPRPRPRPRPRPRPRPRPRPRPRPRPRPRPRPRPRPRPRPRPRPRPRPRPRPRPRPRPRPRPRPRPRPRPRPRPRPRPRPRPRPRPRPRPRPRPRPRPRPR

[2] = target: myc-BioID-(GGGS)x3-poly-GA x100 fusion protein (human)
[3] = target: T2, myc-BioID-(GGGS)x3-poly-GR x100 fusion protein (human)
T2 sequence: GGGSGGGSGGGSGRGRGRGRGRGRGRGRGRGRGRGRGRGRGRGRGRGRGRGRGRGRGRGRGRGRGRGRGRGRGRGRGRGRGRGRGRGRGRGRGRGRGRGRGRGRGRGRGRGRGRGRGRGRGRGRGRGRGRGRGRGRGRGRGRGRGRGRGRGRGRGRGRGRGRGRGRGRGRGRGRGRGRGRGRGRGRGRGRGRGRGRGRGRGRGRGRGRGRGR

## Nucleophosmin (NPM1) (from UniProt P06748 1-294)
[1]
  binding: binds

## RNA-binding protein EWS (EWSR1) (from UniProt Q01844 1-656)
[1]
  binding: binds

B1: UBXN1/SAKS1 (protein, UniProt Q04323 1-297)
chain: MAELTALESLIEMGFPRGRAEKALALTGNQGIEAAMDWLMEHEDDPDVDEPLETPLGHILGREPTSSEQGGLEGSGSAAGEGKPALSEEERQEQTKRMLELVAQKQREREEREEREALERERQRRRQGQELSAARQRLQEDEMRRAAEERRREKAEELAARQRVREKIERDKAERAKKYGGSVGSQPPPVAPEPGPVPSSPSQEPPTKREYDQCRIQVRLPDGTSLTQTFRAREQLAAVRLYVELHRGEELGGGQDPVQLLSGFPRRAFSEADMERPLQELGLVPSAVLIVAKKCPS
[2]
  binding: binds

B2: UBXN6/UBXD1 (protein, UniProt Q9BZV1 1-441)
chain: MKKFFQEFKADIKFKSAGPGQKLKESVGEKAHKEKPNQPAPRPPRQGPTNEAQMAAAAALARLEQKQSRAWGPTSQDTIRNQVRKELQAEATVSGSPEAPGTNVVSEPREEGSAHLAVPGVYFTCPLTGATLRKDQRDACIKEAILLHFSTDPVAASIMKIYTFNKDQDRVKLGVDTIAKYLDNIHLHPEEEKYRKIKLQNKVFQERINCLEGTHEFFEAIGFQKVLLPAQDQEDPEEFYVLSETTLAQPQSLERHKEQLLAAEPVRAKLDRQRRVFQPSPLASQFELPGDFFNLTAEEIKREQRLRSEAVERLSVLRTKAMREKEEQRGLRKYNYTLLRVRLPDGCLLQGTFYARERLGAVYGFVREALQSDWLPFELLASGGQKLSEDENLALNECGLVPSALLTFSWDMAVLEDIKAAGAEPDSILKPELLSAIEKLL
[2]
  binding: binds

B3: SERPIN H1/HSP47 (protein, UniProt P50454 19-418)
chain: AEVKKPAAAAAPGTAEKLSPKAATLAERSAGLAFSLYQAMAKDQAVENILVSPVVVASSLGLVSLGGKATTASQAKAVLSAEQLRDEEVHAGLGELLRSLSNSTARNVTWKLGSRLYGPSSVSFADDFVRSSKQHYNCEHSKINFRDKRSALQSINEWAAQTTDGKLPEVTKDVERTDGALLVNAMFFKPHWDEKFHHKMVDNRGFMVTRSYTVGVMMMHRTGLYNYYDDEKEKLQIVEMPLAHKLSSLIILMPHHVEPLERLEKLLTKEQLKIWMGKMQKKAVAISLPKGVVEVTHDLQKHLAGLGLTEAIDKNKADLSRMSGKKDLYLASVFHATAFELDTDGNPFDQDIYGREELRSPKLFYADHPFIFLVRDTQSGSLLFIGRLVRPKGDKMRDEL
[2]
  binding: binds

B4: LTV1 (protein, UniProt Q96GA3 1-475)
chain: MPHRKKKPFIEKKKAVSFHLVHRSQRDPLAADESAPQRVLLPTQKIDNEERRAEQRKYGVFFDDDYDYLQHLKEPSGPSELIPSSTFSAHNRREEKEETLVIPSTGIKLPSSVFASEFEEDVGLLNKAAPVSGPRLDFDPDIVAALDDDFDFDDPDNLLEDDFILQANKATGEEEGMDIQKSENEDDSEWEDVDDEKGDSNDDYDSAGLLSDEDCMSVPGKTHRAIADHLFWSEETKSRFTEYSMTSSVMRRNEQLTLHDERFEKFYEQYDDDEIGALDNAELEGSIQVDSNRLQEVLNDYYKEKAENCVKLNTLEPLEDQDLPMNELDESEEEEMITVVLEEAKEKWDCESICSTYSNLYNHPQLIKYQPKPKQIRISSKTGIPLNVLPKKGLTAKQTERIQMINGSDLPKVSTQPRSKNESKEDKRARKQAIKEERKERRVEKKANKLAFKLEKRRQEKELLNLKKNVEGLKL
[3]
  binding: binds

B5: double-stranded RNA-binding protein Staufen homolog 2 (STAU2) (protein, UniProt Q9NUL3 1-570)
chain: MANPKEKTAMCLVNELARFNRVQPQYKLLNERGPAHSKMFSVQLSLGEQTWESEGSSIKKAQQAVANKALTESTLPKPVQKPPKSNVNNNPGSITPTVELNGLAMKRGEPAIYRPLDPKPFPNYRANYNFRGMYNQRYHCPVPKIFYVQLTVGNNEFFGEGKTRQAARHNAAMKALQALQNEPIPERSPQNGESGKDVDDDKDANKSEISLVFEIALKRNMPVSFEVIKESGPPHMKSFVTRVSVGEFSAEGEGNSKKLSKKRAATTVLQELKKLPPLPVVEKPKLFFKKRPKTIVKAGPEYGQGMNPISRLAQIQQAKKEKEPDYVLLSERGMPRRREFVMQVKVGNEVATGTGPNKKIAKKNAAEAMLLQLGYKASTNLQDQLEKTGENKGWSGPKPGFPEPTNNTPKGILHLSPDVYQEMEASRHKVISGTTLGYLSPKDMNQPSSSFFSISPTSNSSATIARELLMNGTSSTAEAIGLKGSSPTPPCSPVQPSKQLEYLARIQGFQAALSALKQFSEQGLDPIDGAMNIEKGSLEKQAKHLREKADNNQAPPGSIAQDCKKSNSAV
[3]
  binding: binds
